# Measurements taken from the supplement of paper PMC12819154, “High-throughput peptide-centric local stability assay extends protein–ligand identification to membrane proteins, tissues and bacteria” (Nature Structural & Molecular Biology, 2025).
# Chains of the proteins cited; added tags and fusions are not shown. Lines headed by an entry give the natural chain unless they say otherwise; changes in a name come on top.
# UniProt Q3UM45: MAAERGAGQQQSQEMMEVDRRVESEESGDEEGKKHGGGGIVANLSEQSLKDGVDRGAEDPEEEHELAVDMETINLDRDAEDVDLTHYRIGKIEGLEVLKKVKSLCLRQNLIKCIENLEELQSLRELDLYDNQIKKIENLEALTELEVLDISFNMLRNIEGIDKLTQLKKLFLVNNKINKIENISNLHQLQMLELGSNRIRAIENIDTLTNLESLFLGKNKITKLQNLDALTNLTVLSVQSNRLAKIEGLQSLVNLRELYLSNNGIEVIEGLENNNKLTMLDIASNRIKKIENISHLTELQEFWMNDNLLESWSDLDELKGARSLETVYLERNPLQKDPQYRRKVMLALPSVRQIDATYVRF
# UniProt Q3UFF7: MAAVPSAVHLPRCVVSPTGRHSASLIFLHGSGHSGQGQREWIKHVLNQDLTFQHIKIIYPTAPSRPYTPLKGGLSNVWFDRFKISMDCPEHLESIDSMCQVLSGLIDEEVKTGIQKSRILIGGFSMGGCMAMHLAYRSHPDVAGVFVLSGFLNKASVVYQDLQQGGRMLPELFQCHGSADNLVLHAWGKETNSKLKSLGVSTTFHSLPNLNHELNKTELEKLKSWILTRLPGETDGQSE
# UniProt Q571F8: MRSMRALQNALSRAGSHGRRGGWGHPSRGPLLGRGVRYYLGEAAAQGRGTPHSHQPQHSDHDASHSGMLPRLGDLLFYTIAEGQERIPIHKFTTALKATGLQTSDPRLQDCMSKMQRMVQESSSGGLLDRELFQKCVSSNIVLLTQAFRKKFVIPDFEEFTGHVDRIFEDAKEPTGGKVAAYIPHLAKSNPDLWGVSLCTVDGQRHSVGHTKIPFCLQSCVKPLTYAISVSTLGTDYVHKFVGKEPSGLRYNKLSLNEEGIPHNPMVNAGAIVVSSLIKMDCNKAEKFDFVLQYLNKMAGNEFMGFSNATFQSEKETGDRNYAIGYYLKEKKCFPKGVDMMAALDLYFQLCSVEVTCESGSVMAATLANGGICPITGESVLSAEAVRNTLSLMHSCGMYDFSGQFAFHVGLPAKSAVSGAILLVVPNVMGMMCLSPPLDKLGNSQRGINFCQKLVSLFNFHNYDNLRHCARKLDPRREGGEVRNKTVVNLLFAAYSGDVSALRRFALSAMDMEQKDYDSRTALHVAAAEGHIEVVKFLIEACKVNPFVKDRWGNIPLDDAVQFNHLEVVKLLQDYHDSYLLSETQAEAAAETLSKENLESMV
# UniProt Q56A08: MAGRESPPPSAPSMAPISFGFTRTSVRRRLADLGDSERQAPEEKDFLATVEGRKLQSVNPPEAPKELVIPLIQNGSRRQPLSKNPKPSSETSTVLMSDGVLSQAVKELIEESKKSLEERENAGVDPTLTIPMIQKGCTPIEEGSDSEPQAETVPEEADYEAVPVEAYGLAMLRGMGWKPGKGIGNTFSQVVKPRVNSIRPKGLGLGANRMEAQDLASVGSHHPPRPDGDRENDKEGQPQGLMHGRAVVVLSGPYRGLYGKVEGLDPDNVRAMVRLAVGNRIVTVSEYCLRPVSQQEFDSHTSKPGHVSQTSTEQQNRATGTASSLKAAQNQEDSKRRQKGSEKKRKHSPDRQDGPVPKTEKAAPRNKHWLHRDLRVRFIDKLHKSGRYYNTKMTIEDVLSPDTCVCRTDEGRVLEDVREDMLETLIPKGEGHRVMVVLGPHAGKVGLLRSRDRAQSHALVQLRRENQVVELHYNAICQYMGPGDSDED
# UniProt Q00519, whole entry: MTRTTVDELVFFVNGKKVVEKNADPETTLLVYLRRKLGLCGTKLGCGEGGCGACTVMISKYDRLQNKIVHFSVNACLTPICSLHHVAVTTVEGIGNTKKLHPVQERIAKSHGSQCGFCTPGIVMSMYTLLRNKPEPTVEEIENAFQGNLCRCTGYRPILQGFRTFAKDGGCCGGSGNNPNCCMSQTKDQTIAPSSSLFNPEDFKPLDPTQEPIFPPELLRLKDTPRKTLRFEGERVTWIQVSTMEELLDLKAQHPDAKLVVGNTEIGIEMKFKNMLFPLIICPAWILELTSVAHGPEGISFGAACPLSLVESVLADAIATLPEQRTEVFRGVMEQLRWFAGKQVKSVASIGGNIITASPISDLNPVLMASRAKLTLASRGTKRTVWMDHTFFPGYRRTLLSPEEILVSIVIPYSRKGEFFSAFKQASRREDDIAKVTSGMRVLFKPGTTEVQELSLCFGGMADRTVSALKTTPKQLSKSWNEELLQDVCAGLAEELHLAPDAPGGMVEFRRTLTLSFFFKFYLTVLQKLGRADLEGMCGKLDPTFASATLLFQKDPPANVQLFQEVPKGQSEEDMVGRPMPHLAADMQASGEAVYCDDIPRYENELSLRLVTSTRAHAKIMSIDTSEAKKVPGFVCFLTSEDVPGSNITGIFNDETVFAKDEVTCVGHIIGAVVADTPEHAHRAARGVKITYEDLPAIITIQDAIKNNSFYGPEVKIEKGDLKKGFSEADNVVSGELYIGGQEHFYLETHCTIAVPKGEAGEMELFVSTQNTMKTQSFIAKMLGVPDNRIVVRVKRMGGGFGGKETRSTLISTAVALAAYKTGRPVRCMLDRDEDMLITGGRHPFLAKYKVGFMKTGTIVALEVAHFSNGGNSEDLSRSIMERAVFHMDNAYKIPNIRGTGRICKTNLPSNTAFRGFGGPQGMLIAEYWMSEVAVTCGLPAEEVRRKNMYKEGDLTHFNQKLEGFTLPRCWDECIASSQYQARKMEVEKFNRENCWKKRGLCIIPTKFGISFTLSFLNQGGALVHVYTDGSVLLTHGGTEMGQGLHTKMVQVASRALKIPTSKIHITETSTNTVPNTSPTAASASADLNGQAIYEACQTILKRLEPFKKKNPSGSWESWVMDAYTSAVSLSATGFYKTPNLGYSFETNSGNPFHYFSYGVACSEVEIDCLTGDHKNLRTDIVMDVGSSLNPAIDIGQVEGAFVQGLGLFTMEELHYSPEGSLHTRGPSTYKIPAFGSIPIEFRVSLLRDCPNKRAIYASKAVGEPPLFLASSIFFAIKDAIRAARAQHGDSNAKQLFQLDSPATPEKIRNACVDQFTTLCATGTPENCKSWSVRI
# UniProt Q283N4: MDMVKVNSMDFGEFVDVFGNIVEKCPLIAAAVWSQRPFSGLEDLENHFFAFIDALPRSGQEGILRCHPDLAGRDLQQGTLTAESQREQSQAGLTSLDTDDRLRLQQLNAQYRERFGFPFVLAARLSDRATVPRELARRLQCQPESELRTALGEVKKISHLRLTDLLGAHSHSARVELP
# UniProt Q4KML4: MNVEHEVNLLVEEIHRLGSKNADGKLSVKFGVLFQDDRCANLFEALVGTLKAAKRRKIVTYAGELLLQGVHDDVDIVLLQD
# UniProt Q07968: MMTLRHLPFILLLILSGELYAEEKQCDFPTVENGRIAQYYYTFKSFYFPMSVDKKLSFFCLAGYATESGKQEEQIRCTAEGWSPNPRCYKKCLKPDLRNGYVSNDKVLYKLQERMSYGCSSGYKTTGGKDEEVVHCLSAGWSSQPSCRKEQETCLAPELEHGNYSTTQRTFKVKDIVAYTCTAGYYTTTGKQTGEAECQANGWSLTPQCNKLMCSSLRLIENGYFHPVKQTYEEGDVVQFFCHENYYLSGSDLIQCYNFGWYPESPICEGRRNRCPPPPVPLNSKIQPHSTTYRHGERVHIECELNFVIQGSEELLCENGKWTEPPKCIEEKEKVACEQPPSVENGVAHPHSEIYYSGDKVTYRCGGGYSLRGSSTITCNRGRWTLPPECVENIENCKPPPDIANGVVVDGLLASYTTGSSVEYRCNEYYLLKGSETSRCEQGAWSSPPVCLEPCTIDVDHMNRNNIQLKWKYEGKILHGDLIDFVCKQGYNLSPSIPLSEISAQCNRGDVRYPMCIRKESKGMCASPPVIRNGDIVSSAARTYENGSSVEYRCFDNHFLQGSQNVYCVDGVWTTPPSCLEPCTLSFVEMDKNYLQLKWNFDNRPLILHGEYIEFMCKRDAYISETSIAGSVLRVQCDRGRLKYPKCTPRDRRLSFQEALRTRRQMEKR
# UniProt Q4VAC9: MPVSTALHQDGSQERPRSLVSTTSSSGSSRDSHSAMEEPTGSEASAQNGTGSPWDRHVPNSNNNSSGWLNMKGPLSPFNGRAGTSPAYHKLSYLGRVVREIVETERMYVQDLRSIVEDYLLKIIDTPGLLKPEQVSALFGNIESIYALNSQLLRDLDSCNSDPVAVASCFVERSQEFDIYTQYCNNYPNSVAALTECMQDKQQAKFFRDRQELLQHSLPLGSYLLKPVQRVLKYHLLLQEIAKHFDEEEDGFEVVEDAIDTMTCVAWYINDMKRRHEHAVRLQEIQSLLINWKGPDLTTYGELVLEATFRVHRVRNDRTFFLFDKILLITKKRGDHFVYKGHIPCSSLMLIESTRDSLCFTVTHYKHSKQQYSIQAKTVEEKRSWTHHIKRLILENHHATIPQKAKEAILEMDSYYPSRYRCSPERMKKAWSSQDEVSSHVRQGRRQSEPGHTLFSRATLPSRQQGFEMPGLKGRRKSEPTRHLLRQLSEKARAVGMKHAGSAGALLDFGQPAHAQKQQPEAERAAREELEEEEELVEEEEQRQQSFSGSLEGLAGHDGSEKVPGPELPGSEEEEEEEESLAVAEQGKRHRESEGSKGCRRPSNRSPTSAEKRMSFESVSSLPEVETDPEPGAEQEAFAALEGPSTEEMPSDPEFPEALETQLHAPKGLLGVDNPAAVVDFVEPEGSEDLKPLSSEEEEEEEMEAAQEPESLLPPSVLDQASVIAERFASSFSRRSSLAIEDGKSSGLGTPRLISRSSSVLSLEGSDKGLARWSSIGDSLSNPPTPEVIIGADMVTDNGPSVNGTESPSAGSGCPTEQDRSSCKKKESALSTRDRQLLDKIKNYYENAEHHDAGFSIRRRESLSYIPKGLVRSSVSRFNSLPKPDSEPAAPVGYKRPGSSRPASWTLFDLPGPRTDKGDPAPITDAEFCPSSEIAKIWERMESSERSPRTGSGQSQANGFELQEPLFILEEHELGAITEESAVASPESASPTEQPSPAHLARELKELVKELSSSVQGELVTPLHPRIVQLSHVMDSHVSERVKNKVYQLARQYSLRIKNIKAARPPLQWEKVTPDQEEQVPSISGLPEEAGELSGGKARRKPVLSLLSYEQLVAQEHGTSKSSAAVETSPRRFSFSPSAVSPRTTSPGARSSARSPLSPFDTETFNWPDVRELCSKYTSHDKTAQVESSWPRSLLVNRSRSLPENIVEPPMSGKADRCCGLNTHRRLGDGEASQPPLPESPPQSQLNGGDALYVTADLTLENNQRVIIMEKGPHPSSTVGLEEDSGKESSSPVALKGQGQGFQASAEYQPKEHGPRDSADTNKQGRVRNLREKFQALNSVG
# UniProt Q02257: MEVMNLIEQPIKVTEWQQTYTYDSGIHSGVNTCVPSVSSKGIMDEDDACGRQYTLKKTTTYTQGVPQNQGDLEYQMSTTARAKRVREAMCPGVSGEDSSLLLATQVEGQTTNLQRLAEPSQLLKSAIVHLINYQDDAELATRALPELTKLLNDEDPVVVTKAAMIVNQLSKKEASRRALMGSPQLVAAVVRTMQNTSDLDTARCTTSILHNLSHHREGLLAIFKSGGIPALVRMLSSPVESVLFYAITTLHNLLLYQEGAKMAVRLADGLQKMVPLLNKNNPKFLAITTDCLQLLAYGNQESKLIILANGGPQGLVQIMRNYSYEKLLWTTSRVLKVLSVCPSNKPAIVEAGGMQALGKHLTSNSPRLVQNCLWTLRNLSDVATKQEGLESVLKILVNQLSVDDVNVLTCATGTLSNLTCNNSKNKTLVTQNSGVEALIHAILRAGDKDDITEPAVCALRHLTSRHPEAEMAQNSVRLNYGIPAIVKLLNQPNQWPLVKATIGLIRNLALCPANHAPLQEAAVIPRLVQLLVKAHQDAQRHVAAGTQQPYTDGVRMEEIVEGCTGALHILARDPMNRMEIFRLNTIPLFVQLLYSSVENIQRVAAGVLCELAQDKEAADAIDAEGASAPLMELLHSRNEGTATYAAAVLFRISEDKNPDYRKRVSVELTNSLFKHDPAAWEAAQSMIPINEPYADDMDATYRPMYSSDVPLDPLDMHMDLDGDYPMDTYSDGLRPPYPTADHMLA
# UniProt Q06138: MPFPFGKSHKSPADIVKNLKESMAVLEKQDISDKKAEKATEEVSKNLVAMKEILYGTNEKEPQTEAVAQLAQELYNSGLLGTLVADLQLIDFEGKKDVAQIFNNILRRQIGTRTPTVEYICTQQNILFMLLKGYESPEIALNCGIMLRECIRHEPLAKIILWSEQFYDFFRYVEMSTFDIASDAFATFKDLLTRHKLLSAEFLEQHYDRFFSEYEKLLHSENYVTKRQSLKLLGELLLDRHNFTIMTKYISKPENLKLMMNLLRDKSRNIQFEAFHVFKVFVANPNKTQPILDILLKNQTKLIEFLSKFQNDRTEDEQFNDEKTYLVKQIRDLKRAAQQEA
# UniProt Q505B7: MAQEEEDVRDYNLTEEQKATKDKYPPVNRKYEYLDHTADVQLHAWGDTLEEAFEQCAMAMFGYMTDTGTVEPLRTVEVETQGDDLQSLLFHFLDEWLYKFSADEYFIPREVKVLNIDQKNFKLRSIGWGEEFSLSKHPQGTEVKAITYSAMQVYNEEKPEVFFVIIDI
# This is one part of the list. Small differences around the control level are noise.
# Compound: CN[C@@H]1C[C@H]2O[C@@](C)([C@@H]1OC)n1c3ccccc3c3c4c(c5c6ccccc6n2c5c31)C(=O)NC4 [staurosporine]
# Assay: log2 fold change of pooled soluble protein (PISA), ligand vs vehicle (log2 ratio); higher = more thermally stabilized
# Settings: ligand concentration: 20 uM; assay format: PISA pool 52.9/55.5/58.6 C
row,Target,log2 fold change of pooled soluble protein
1,UniProt Q3ULF4,0.0218
2,UniProt Q571G4,0.183
3,UniProt Q03249,0.0398
4,UniProt Q3UH66,0.0604
5,UniProt Q3UM45,-0.0469
6,UniProt Q00623,-0.0969
7,UniProt Q3TJD7,0.0553
8,UniProt Q3UFF7,0.0175
9,UniProt Q59J78,0.0668
10,UniProt Q571F8,-0.0787
11,UniProt Q4VAA2,-0.11
12,UniProt Q06770,0.0908
13,UniProt Q56A08,-0.254
14,UniProt Q00519,-0.0669
15,UniProt Q5ND29,-0.184
16,UniProt Q283N4,-0.164
17,UniProt Q3V0K9,0.457
18,UniProt Q5NBX1,0.0483

row,Target,log2 fold change of pooled soluble protein
1,UniProt Q4KML4,0.405
2,UniProt Q07417,-0.0713
3,UniProt Q07968,-0.0555
4,UniProt P98203,-0.424
5,UniProt Q07813,-0.181
6,UniProt Q0GNC1,0.0478
7,UniProt Q08481,0.0555
8,UniProt Q04519,0.0782
9,UniProt Q505D7,0.0293
10,UniProt Q4VAC9,-0.614
11,UniProt Q02257,-0.0293
12,UniProt Q3U487,-0.195
13,UniProt Q3UH06,-0.131
14,UniProt Q06138,0.0409
15,UniProt Q3UFS4,-0.176
16,UniProt Q505B7,-0.232
17,UniProt Q3U5F4,-0.126
18,UniProt Q58A65,0.0415

# An excerpt of the results above, as a working copy:
row,Target,log2 fold change of pooled soluble protein
1,UniProt Q4KML4,0.405
2,UniProt Q07417,-0.0713
3,UniProt Q07968,-0.0555
4,UniProt P98203,-0.424
5,UniProt Q07813,-0.181
6,UniProt Q0GNC1,0.0478
7,UniProt Q08481,0.0555
